Experimental data reported in the supplement of paper PMC7666118.
This is one part of the list.

Protein sequences, listed by entry. Tags and fused reporters are not part of them. Lines headed by an entry give the natural chain unless they say otherwise; changes in a name come on top.
UniProt P05455: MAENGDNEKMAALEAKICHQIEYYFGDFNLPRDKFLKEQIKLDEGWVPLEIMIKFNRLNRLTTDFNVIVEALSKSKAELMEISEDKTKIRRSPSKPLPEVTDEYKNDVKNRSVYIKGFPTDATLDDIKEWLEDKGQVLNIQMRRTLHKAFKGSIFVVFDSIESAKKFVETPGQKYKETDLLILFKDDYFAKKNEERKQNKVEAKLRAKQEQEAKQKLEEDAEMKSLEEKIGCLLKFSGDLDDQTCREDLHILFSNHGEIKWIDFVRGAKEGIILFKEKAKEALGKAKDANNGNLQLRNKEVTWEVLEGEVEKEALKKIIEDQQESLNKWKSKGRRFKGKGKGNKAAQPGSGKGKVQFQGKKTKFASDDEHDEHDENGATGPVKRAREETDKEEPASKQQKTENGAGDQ
UniProt Q96DI7: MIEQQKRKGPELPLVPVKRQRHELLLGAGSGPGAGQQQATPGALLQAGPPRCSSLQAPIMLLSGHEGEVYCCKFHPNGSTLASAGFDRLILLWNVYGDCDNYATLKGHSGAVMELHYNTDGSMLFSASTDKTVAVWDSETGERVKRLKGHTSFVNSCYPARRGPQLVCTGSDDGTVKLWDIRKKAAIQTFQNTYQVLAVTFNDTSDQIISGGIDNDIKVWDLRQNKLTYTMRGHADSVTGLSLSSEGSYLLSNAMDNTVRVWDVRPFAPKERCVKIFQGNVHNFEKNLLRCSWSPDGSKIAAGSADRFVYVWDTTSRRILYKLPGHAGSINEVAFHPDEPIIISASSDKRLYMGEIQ
UniProt O43426, whole entry: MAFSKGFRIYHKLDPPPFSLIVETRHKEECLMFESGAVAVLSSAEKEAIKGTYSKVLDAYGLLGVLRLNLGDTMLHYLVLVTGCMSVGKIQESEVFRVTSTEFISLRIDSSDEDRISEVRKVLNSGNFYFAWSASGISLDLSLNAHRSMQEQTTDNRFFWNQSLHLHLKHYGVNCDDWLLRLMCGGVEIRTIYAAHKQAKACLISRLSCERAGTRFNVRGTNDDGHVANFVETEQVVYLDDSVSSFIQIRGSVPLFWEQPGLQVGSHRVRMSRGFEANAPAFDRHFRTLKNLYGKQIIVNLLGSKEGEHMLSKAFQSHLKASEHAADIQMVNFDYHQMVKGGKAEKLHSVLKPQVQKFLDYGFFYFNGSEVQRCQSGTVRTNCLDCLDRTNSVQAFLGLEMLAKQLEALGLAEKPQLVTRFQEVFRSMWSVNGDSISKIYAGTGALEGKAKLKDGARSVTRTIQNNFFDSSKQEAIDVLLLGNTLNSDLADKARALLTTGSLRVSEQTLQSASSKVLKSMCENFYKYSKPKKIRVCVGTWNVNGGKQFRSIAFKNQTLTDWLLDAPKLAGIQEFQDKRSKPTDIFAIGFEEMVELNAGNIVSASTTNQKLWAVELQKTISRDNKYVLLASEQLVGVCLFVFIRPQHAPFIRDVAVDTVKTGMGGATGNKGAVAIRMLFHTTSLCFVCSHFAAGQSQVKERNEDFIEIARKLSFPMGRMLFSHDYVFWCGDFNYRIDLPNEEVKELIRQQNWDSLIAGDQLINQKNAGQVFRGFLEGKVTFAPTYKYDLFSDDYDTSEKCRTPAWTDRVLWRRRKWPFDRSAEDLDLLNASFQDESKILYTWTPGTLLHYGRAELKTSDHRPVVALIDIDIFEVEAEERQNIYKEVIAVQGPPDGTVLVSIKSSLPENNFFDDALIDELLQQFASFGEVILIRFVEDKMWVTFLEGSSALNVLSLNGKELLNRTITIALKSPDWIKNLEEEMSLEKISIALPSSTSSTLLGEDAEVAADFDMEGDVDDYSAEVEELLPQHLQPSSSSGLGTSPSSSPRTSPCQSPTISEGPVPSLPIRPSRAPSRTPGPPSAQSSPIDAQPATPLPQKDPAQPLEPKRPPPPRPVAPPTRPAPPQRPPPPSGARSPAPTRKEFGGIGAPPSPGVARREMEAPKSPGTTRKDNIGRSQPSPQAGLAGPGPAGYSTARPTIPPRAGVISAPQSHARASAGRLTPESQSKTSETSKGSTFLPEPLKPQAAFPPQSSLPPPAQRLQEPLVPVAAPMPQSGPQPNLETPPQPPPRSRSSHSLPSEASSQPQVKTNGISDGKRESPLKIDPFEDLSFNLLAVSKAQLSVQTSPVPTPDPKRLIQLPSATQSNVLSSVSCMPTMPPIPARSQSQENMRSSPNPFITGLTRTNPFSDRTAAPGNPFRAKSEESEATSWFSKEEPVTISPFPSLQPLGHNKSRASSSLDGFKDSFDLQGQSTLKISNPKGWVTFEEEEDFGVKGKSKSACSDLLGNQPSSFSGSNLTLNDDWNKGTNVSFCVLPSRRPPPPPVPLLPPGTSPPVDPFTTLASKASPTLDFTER
UniProt Q86Y82: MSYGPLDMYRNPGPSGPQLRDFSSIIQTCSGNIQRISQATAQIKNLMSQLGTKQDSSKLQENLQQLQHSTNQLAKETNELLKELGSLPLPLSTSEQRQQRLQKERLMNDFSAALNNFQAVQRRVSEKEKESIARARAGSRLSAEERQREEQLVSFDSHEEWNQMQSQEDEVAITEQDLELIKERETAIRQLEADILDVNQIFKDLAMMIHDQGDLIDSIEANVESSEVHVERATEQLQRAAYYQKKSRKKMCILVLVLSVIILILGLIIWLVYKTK
UniProt Q96BD0: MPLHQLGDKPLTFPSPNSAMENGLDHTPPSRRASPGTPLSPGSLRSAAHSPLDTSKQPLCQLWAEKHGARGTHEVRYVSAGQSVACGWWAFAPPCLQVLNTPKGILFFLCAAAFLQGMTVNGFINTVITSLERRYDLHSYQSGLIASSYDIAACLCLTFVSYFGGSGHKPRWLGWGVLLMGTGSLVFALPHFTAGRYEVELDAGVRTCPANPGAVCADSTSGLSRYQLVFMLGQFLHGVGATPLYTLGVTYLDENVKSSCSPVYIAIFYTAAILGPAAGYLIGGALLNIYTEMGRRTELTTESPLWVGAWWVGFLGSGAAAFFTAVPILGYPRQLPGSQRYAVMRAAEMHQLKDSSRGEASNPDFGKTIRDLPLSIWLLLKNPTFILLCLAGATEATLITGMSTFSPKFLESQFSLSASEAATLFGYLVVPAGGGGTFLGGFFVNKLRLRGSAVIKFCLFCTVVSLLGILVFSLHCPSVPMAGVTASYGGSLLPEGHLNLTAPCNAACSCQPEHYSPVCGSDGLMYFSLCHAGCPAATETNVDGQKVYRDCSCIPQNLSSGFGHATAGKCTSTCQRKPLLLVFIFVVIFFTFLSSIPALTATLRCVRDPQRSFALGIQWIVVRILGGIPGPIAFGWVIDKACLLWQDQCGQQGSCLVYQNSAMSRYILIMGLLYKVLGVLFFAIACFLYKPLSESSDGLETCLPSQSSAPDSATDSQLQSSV
UniProt O60493, whole entry: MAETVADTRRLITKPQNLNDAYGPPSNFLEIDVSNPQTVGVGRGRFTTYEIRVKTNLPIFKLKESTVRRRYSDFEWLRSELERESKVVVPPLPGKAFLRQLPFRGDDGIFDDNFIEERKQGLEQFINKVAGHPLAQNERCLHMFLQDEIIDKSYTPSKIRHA
UniProt Q92673: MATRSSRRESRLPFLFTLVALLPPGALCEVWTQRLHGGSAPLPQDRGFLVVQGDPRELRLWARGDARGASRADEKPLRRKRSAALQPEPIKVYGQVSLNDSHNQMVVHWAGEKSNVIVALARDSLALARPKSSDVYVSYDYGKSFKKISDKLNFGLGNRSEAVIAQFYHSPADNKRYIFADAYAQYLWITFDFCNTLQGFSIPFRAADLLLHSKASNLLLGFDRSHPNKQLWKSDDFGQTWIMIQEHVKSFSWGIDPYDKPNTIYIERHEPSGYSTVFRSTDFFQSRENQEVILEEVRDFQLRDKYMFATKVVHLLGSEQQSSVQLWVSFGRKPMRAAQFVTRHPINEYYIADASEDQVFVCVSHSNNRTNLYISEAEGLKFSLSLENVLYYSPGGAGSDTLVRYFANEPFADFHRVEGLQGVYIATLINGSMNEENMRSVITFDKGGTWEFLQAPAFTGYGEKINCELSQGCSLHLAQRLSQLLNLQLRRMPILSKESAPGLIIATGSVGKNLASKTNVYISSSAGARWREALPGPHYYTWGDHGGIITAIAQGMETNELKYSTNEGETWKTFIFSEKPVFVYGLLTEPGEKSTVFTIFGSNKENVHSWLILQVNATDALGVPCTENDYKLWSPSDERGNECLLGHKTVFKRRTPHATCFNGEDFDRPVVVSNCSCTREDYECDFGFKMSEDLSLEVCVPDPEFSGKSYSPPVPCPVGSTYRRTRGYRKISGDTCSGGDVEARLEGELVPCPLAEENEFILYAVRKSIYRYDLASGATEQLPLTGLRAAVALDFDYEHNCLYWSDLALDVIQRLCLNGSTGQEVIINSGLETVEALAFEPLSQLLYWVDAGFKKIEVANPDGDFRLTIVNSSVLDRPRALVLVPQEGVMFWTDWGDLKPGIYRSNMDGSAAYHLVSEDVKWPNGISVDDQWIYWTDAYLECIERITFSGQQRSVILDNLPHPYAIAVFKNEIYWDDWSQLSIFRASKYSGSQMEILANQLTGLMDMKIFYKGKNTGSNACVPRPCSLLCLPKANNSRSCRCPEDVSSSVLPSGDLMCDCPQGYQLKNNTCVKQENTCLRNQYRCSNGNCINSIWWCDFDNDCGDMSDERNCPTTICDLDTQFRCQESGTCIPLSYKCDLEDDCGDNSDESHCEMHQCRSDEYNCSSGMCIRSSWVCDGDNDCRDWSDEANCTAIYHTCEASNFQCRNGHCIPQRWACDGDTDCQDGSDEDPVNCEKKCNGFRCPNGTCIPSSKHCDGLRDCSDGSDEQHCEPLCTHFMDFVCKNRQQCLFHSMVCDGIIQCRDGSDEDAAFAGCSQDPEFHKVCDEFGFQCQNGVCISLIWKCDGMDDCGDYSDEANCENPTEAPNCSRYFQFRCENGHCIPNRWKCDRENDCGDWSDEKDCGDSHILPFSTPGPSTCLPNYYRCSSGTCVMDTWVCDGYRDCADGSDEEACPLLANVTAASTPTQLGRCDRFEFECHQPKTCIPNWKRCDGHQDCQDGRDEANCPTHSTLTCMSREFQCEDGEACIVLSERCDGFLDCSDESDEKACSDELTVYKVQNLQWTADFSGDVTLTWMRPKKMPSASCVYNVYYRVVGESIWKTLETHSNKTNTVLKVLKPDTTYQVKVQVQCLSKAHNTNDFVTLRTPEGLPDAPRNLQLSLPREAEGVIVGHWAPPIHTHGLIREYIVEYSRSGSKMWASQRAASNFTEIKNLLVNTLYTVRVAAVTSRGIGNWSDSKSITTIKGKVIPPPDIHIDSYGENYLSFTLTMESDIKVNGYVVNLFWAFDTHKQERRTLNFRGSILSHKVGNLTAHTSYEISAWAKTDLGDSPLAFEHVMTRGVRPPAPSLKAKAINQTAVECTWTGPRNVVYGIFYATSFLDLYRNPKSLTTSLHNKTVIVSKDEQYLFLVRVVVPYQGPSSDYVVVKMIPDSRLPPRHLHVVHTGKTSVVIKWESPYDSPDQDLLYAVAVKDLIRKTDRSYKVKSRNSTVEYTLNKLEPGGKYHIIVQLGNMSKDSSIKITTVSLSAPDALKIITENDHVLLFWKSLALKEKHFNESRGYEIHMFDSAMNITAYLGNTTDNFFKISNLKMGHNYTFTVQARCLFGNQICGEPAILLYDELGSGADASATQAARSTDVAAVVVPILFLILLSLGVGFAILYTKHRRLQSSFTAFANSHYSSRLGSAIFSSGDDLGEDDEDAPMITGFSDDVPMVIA
UniProt P19623: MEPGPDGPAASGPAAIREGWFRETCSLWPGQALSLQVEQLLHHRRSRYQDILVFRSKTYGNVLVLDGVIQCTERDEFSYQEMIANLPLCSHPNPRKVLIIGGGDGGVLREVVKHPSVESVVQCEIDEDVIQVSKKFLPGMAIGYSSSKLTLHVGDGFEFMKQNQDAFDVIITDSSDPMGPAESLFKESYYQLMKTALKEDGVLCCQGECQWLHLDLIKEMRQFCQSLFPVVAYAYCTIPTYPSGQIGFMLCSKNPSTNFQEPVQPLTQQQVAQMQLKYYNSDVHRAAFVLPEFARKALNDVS
UniProt O95793: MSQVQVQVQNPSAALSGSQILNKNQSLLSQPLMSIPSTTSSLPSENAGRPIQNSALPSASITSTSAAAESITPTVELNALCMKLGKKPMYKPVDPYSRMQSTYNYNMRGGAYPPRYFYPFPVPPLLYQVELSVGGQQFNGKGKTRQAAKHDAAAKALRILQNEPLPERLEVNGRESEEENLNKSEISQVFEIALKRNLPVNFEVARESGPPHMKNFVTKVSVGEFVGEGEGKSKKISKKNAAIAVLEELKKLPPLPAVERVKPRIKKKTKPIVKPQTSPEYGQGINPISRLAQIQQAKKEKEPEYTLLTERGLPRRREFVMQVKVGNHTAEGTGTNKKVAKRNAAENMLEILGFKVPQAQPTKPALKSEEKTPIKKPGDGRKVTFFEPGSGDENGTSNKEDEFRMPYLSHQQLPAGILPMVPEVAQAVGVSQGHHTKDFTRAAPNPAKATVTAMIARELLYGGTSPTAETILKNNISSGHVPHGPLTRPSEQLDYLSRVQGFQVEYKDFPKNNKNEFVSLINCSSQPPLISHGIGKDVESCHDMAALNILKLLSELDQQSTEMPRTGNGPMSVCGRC

Each target was assayed with COc1ccc(Cn2ccc3ccc(C(=O)NO)cc32)cc1 (assay: dose-dependent thermal stabilisation call (2D-TPP, DLPTP, 10% FDR) (binary (1 = stabilised)); higher = stabilised by the compound). Settings: system: HL-60 intact cells; concentration range 0.04-10 µM.

Row | Target | dose-dependent thermal stabilisation call
1 | SUPT5H (UniProt O00267) | inactive: 0
2 | SMC3 (UniProt Q9UQE7) | inactive: 0
3 | SRP72 (UniProt O76094) | inactive: 0
4 | STX7 (UniProt O15400) | inactive: 0
5 | SLC7A6OS (UniProt Q96CW6) | inactive: 0
6 | SSB (UniProt P05455) | inactive: 0
7 | SPTLC2 (UniProt O15270) | inactive: 0
8 | SLC9A1 (UniProt P19634) | inactive: 0
9 | SPTBN2 (UniProt O15020) | inactive: 0
10 | STK25 (UniProt O00506) | inactive: 0
11 | SNRNP40 (UniProt Q96DI7) | inactive: 0
12 | STAMBP (UniProt O95630) | inactive: 0
13 | SPRYD4 (UniProt Q8WW59) | inactive: 0
14 | STX5 (UniProt Q13190) | inactive: 0
15 | SYNJ1 (UniProt O43426) | inactive: 0
16 | STX12 (UniProt Q86Y82) | inactive: 0
17 | STX18 (UniProt Q9P2W9) | inactive: 0
18 | SYAP1 (UniProt Q96A49) | inactive: 0
19 | SOLH (UniProt O75808) | inactive: 0

Row | Target | dose-dependent thermal stabilisation call
20 | SMC4 (UniProt Q9NTJ3) | inactive: 0
21 | SLCO4A1 (UniProt Q96BD0) | inactive: 0
22 | SMAP1 (UniProt Q8IYB5) | inactive: 0
23 | TAF2 (UniProt Q6P1X5) | inactive: 0
24 | SMTN (UniProt P53814) | inactive: 0
25 | SMNDC1 (UniProt O75940) | inactive: 0
26 | SNX3 (UniProt O60493) | inactive: 0
27 | SORL1 (UniProt Q92673) | inactive: 0
28 | SPAG9 (UniProt O60271) | inactive: 0
29 | STEAP3 (UniProt Q658P3) | inactive: 0
30 | SRM (UniProt P19623) | inactive: 0
31 | SMC2 (UniProt O95347) | inactive: 0
32 | SNW1 (UniProt Q13573) | inactive: 0
33 | STAU1 (UniProt O95793) | inactive: 0
34 | SQSTM1 (UniProt Q13501) | inactive: 0
35 | SLC9A6 (UniProt Q92581) | inactive: 0
36 | SRBD1 (UniProt Q8N5C6) | inactive: 0
37 | SPRYD3 (UniProt Q8NCJ5) | inactive: 0

2 successive entries out of the list so far, for reference:
Row | Target | dose-dependent thermal stabilisation call
6 | SSB (UniProt P05455) | inactive: 0
7 | SPTLC2 (UniProt O15270) | inactive: 0
